No constants are given. Whether binding was seen depends on the method and setting. Some entries that bind do so weakly or less than the wild type.
Biological target: T1, human BAFF-R (JST576), full length, on cells (human) (UniProt Q96RJ3)
T1 sequence: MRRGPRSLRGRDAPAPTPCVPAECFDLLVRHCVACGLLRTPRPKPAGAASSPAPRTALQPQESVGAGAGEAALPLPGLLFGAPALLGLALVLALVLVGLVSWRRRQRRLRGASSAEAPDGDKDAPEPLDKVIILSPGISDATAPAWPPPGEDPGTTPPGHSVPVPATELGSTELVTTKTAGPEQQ
Assay: FACS on 293EBNA cells co-transfected with pJST576 and GFP, 5 ug/ml, anti-flag M2, anti-mouse IgG-PE

Amino acid sequences for entries named in this document (tags omitted). Residues count along the entry.
UniProt Q9WU72, residues 127-309: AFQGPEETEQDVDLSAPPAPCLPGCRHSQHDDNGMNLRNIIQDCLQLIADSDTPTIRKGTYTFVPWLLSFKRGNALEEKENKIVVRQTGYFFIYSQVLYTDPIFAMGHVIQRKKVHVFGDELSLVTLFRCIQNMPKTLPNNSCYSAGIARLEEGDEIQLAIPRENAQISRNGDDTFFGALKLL

binding: binds
Substance: recombinant soluble murine flag-BAFF (from UniProt Q9WU72 127-309) (ligand)

Reference: patent US20040072188A1 (Biogen, published 2004)
